Data reported in US20030157554A1 (published 2003).

Columns and labels:
[1] = target: T1, Synphilin (Genbank ID: AF076929) (human, UniProt Q9Y6H5 335-660, limits assumed); experiment: Y2H 1x1 mating, binder AD fusion, target BD fusion
T1 construct: range 335-~660; Prey from kidney library; end of the fragment approximate; also called Synphilin I; Synphilin 1
T1 sequence (looked up): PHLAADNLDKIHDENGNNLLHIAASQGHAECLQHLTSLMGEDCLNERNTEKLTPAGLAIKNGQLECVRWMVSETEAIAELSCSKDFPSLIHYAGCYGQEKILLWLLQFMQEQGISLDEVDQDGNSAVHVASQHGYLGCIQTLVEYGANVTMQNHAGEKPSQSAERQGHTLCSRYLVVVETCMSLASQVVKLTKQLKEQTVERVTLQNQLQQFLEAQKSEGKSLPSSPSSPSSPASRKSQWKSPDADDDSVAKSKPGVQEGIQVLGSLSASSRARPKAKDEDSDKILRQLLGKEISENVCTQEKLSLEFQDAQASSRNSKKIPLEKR

[2] = target: S100A6 (Genbank ID: M14300) (human, UniProt P06703 1-90); experiment: Y2H 1x1 mating, binder AD fusion, target BD fusion
[3] = target: T2, S100A9 (Genbank ID: M26311) (human, UniProt P06702 1-114); experiment: Y2H 1x1 mating, binder AD fusion, target BD fusion
T2 construct: range 1-114; Prey from liver and muscle libraries
T2 sequence (looked up): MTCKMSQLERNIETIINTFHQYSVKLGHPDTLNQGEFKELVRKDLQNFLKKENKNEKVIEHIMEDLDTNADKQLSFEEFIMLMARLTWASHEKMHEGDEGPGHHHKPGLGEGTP

[4] = target: T3, ATPase (ATP6N1) (Genbank ID: u73006) (human, UniProt Q93050 1-300, limits assumed); experiment: Y2H 1x1 mating, binder AD fusion, target BD fusion
T3 construct: range 1-~300; Prey from liver library; end of the fragment approximate; also called Vacuolar-type H(+) ATPase; ATP6N17

[5] = target: T4, S100B-2 (human, UniProt P04271 1-62, limits assumed); experiment: Y2H, baits tested against each other
T4 construct: Truncated bait; also called truncated S100B
T4 sequence (looked up): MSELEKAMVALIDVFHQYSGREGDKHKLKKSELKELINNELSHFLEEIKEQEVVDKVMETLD

[6] = target: T5, S100B-1 (human, UniProt P04271 1-92); experiment: Y2H, baits tested against each other
T5 construct: Full-length bait; also called full length S100B
T5 sequence (looked up): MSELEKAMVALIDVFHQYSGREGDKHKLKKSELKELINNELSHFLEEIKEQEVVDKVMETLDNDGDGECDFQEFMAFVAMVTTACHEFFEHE

[7] = target: the molecule itself; experiment: Y2H, baits tested against each other
[8] = target: T6, S100A1-1 (human, UniProt P23297 1-94); experiment: Y2H, baits tested against each other
T6 construct: Full-length bait; also called full length S100A1
T6 sequence (looked up): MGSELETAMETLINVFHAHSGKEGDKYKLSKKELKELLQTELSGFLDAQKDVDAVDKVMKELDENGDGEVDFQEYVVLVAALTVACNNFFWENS

binding result [1]: no binding | binding result [2]: no binding | binding result [3]: no binding | binding result [4]: no binding | binding result [5]: no binding | binding result [6]: no binding | binding result [8]: no binding
B1: S100A1-2 (other, human, UniProt P23297 1-62, looked up)
chain: MGSELETAMETLINVFHAHSGKEGDKYKLSKKELKELLQTELSGFLDAQKDVDAVDKVMKEL
notes: Truncated bait; also called truncated S100A1
binding result [7]: no binding
